Test results from PubChem BioAssay AID2685 (National Center for Advancing Translational Sciences (NCATS), 2010).
The campaign covered roughly 320,000 compounds. About 2,100 (0.66%) were called active. The shares of active, inactive and inconclusive entries below differ from those in the screen. Calls come from the whole dose curve; as a rule, active = well fitted inhibition curve with a large enough effect in the signal ratio, with a control signal flat (not every such curve was filed as active); inconclusive = small, poorly fitted or top-dose-only effect, or effect the other way, or a change in a side signal; inactive = flat fitted curve, though single readings scatter; the % refers to the signal ratio. A potency beside an inconclusive call is a rough fit, not a confirmed value.
% is set by controls: 0 for no effect and ±100 for the full control effect; potency is the fitted concentration of half-maximal effect.

Assay: qHTS Assay for Lipid Storage Modulators in Drosophila S3 Cells
Conditions: BODIPY lipid droplet fluorescence, 18-24 h, cells fed with added oleic acid; lipid storage change, negative = inhibition: at 46.1 µM (top of the series) unless noted
Method in brief: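 Drosophila S3 cells got compounds at several concentrations plus oleic acid (400 uM solution). Laser-scanning cytometry with 488 nm excitation read lipid droplets at 500-530 nm and cells at 575-640 nm. Percent activity was relative to 20 uM Triacsin C.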
With `COCCNC(=O)c1ccc2c3n(nc2c1)-c1ccc(C)cc1CO3` the lipid storage change, negative = inhibition was inconclusive: -6.02%.
With `OC1CCN(Cc2cn(Cc3ccccc3)nc2-c2cc3ccccc3o2)CC1` the lipid storage change, negative = inhibition was inconclusive: 29.2%.
In the case of `Cc1nnc(SCC(=O)Nc2cc(S(=O)(=O)N3CCCC3)ccc2Cl)s1`, the Potency is reported as inconclusive: 23.1 µM [falling, partial curve, poor fit].
With `CC(C)(CNC(=S)NCCc1ccccc1)CNC(=S)NCCc1ccccc1` the lipid storage change, negative = inhibition was inconclusive: -24.7%.
For `Cc1ccc(-n2c(SCC(=O)NC3CCS(=O)(=O)C3)nc3ccccc3c2=O)cc1C` (stereo unspecified), the lipid storage change, negative = inhibition was inconclusive: 20.2%.
With `CCN(CC(=O)Nc1cc(C)c(Cl)cc1OC)CC(=O)NC1CCS(=O)(=O)C1` (stereo unspecified) the lipid storage change, negative = inhibition was inconclusive: 11.4%.
With `CN(C(=O)COC(=O)C1c2ccccc2Oc2ccccc21)C1CCS(=O)(=O)C1` (stereo unspecified) the lipid storage change, negative = inhibition was inconclusive: 93.5%.
In the case of `Cc1ccc(NC2CCCN(C(=O)CCN3CCOCC3)C2)cc1C` (stereo unspecified), the Potency is reported as inconclusive: 29.1 µM [activator, single point].
With `Cc1cc(C(=O)CSc2nnc(-c3ccco3)o2)c(C)n1-c1ccc2c(c1)OCCO2` the lipid storage change, negative = inhibition was inconclusive: 47.6%.
For `Cc1onc(-c2ccccc2)c1C(=O)N1CCCC(C(F)(F)F)C1` (stereo unspecified), the lipid storage change, negative = inhibition was inconclusive: 15.4%.
In the case of `O=C(COC(=O)c1ccc(Br)o1)Nc1ncc([N+](=O)[O-])s1`, the lipid storage change, negative = inhibition is reported as inconclusive: 37%.
For `COc1ccc(NC(=O)c2c(NC(=O)CNCc3ccco3)sc3c2CCC3)cc1`, the lipid storage change, negative = inhibition was inconclusive: -14.3%.
For `COc1ccccc1NC(=O)c1ccc(Cl)c(S(=O)(=O)N2CCOCC2)c1`, the lipid storage change, negative = inhibition was inconclusive: 25.1%.
For `CCOc1ccccc1NC(=O)CSc1nnc(-c2cccnc2)o1`, the Potency was inconclusive: 0.0058 µM [falling, full curve, poor fit].
In the case of `Cn1c(SCC(=O)Nc2ccc(F)cc2)nnc1C1CC1`, the lipid storage change, negative = inhibition is reported as inconclusive: 146%.
With `C=CCNC(=O)N1c2ccccc2Sc2ccccc21` the lipid storage change, negative = inhibition was inconclusive: -8.27%.
With `O=C(/C=N/NC(=O)c1ccccc1Br)c1ccccc1` the Potency was inconclusive: 29.1 µM [rising, single point].
For `CCOc1ccccc1NC(=O)CSc1ncnc2c1oc1ccccc12`, the lipid storage change, negative = inhibition was inconclusive: 17.4%.
In the case of `Cc1ccccc1N(C(=O)CNC(=O)c1cccs1)C(C(=O)NC1CCCC1)c1ccncc1` (stereo unspecified), the lipid storage change, negative = inhibition is reported as inconclusive: 60.7%.
In the case of `CCn1ncc([N+](=O)[O-])c1C(=O)Nc1c(C)cccc1C`, the Potency is reported as inconclusive: 29.1 µM [activator, single point].
In the case of `C=CCn1c(CCc2cc(C(C)(C)C)c(O)c(C(C)(C)C)c2)n[nH]c1=S`, the lipid storage change, negative = inhibition is reported as inconclusive: 27.9%.
In the case of `CCCOc1ccc(Cl)cc1CN1CCOCC1`, the lipid storage change, negative = inhibition is reported as inconclusive: 4.19%.
In the case of `O=C(O)c1ccc(/C=N/Nc2nc(N3CCCCC3)nc(N3CCCCC3)n2)cc1`, the lipid storage change, negative = inhibition is reported as inconclusive: 5.76%.
In the case of `Cc1csc(NC(=O)[C@@H]2CCCN2C(=O)c2cccs2)n1`, the lipid storage change, negative = inhibition is reported as inconclusive: 13.1%.
With `COc1cccc(C#Cc2c(CO)[nH]c3ccccc23)c1` the lipid storage change, negative = inhibition was inconclusive: 5.56%.
With `COc1ccccc1N(C)S(=O)(=O)c1ccc(Cl)c(C(=O)Nc2ccncc2)c1` the lipid storage change, negative = inhibition was inconclusive: -19.3%.
With `CCOC(=O)c1[nH]c(C)c(C(=O)OCC)c1C` the Potency was inconclusive: 6.51 µM [activator, single point].
For `CC(=O)Nc1cccc(C(=O)OCC(=O)NNC(=O)c2ccc([N+](=O)[O-])cc2)c1`, the lipid storage change, negative = inhibition was “inconclusive”.
With `CCOC(=O)N1CCN(C(=O)CCc2c(C)nc3nc(C)nn3c2C)CC1` the lipid storage change, negative = inhibition was inconclusive: -2.84%.
With `CCN(Cc1ccncc1)C(=O)c1cc(COc2ccc(C)c(C)c2)on1` the lipid storage change, negative = inhibition was inconclusive: -64.6%.
For `CCc1ccc(C(=O)CSc2nnc(C3CC3)n2C2CC2)cc1`, the Potency was inconclusive: 20.6 µM [falling, single point].
For `COCCOC(=O)c1[nH]c2c(c1C)C(=O)CC(c1ccc(OC)cc1)C2` (stereo unspecified), the lipid storage change, negative = inhibition was inconclusive: -1.38%.
In the case of `CC(=O)Nc1cc(C(F)(F)F)ccc1OCC1CCCO1` (stereo unspecified), the lipid storage change, negative = inhibition is reported as inconclusive: 2.92%.
For `Cn1nnnc1SCC(=O)N1CCN(c2ccc(Cl)cc2)CC1`, the lipid storage change, negative = inhibition was inconclusive: 8.28%.
In the case of `COc1cccc(N2C(=O)CC(NNC(=O)c3cccs3)C2=O)c1` (stereo unspecified), the Potency is reported as inconclusive: 5.17 µM [activator, full curve, poor fit].
For `Cc1ccc(CCNC(=O)CS(=O)Cc2nc(-c3cccs3)oc2C)cc1` (stereo unspecified), the lipid storage change, negative = inhibition was inconclusive: 9.99%.
With `Cc1cc(Cl)ccc1OCCCC(=O)NNC(=O)c1ccncc1` the Potency was inconclusive: 6.51 µM [rising, single point].
For `CC1(C2CC2)NC(=O)N(CC(=O)Nc2ccccc2C#N)C1=O` (stereo unspecified), the lipid storage change, negative = inhibition was “inconclusive”.
For `C/C(CC(=O)Nc1ccc2c(c1)OCCO2)=N\NC(=O)COc1ccccc1`, the lipid storage change, negative = inhibition was inconclusive: -142%.
With `COc1ccccc1Nc1nn2c(=O)c3ccc(C(=O)N4CCC(C)CC4)cc3nc2s1` the Potency was inconclusive: 0.58 µM [falling, full curve].
With `CCOC(=O)c1c(C)c(/C=N/Nc2ccccc2)n(C)c1C` the lipid storage change, negative = inhibition was inconclusive: -8.15%.
In the case of `CCCCN(C(=O)c1ccccc1Br)C1CCS(=O)(=O)C1` (stereo unspecified), the lipid storage change, negative = inhibition is reported as inconclusive: -1.45%.
In the case of `COc1cccc(C(C(=O)NC2CCCCC2)N(C(=O)c2ccco2)c2ccccc2OC)c1` (stereo unspecified), the lipid storage change, negative = inhibition is reported as inconclusive: -36.8%.
For `FC(F)(F)c1cc(-c2cccs2)nc(N2CCOCC2)n1`, the Potency was inconclusive: 18.4 µM [activator, partial curve].
In the case of `Cc1ccc(N(C(C)C(=O)O)S(=O)(=O)c2c(C)n[nH]c2C)cc1` (stereo unspecified), the “lipid storage change, negative = inhibition” value is reported as inactive: 14.2%.
With `Cc1ccc(N(CC(=O)N2CCOCC2)S(C)(=O)=O)cc1Cl` the Potency was inconclusive: 5.8 µM [activator, full curve, poor fit].
With `Cn1nnnc1SCC(=O)NC(=O)NCc1ccccc1` the Potency was inconclusive: 29.1 µM [rising, single point].
With `CC(OC(=O)c1nc(Cl)ccc1Cl)C(=O)c1ccccc1` (stereo unspecified) the lipid storage change, negative = inhibition was inconclusive: 2.03%.
In the case of `O=S(=O)(Nc1ccc(-c2csc(-c3ccccc3)n2)cc1)c1ccc(F)cc1`, the Potency is reported as inconclusive: 29.1 µM [cytotoxic, single point].
With `CCOc1ccc(NC(=O)CN(C)C(=O)CCNC(=O)c2ccccc2Cl)cc1OCC` the lipid storage change, negative = inhibition was “inconclusive”.
For `COc1ccc(CNC(=O)c2cccc(N3CCCC3=O)c2)cc1`, the Potency was inconclusive: 5.17 µM [activator, full curve, poor fit].
With `COc1cccc(S(=O)(=O)c2nc(C)c3c(n2)CCC3)c1` the lipid storage change, negative = inhibition was inconclusive: -22.6%.
With `CC(C)Cc1nc(N2CCC(C(N)=O)CC2)c2nnn(Cc3ccccc3)c2n1` the Potency was inconclusive: 0.092 µM [activator, single point].
With `CCOc1cc(C(=O)Nc2cc(C)ccc2OC)ccc1OCC(=O)N1CCCCC1` the Potency was inconclusive: 0.82 µM [activator, full curve].
With `O=C(Nc1cccnc1)c1cc([N+](=O)[O-])ccc1Cl` the Potency was inconclusive: 0.82 µM [falling, full curve, poor fit].
In the case of `COC(CNC(=O)C1CC(=O)N(CCc2ccccc2)C1)OC` (stereo unspecified), the lipid storage change, negative = inhibition is reported as inconclusive: -60.3%.
With `Cc1ccc(Nc2nnc(SCC(=O)NCCN3C(=O)CSC3=O)s2)cc1` the Potency was inconclusive: 16.4 µM [falling, single point].
With `COc1cc(C(=O)OCCC(C)C)cc(OC)c1O` the lipid storage change, negative = inhibition was inconclusive: -40.7%.
In the case of `CCOC(=O)N1CCN(C(=S)Nc2ccccc2C(C)C)CC1`, the lipid storage change, negative = inhibition is reported as inconclusive: -6.24%.
In the case of `COc1ccc(C(=O)OCC(=O)Nc2ccc(OC)c(S(=O)(=O)N3CCCCC3)c2)cc1[N+](=O)[O-]`, the lipid storage change, negative = inhibition is reported as “inconclusive”.
With `COc1ccc(NC(=O)/C(=C/c2ccc3c(c2)OCO3)NC(C)=O)cc1` the lipid storage change, negative = inhibition was inconclusive: 30.8%.
For `COc1ccc(CNC(=O)CSCc2cccc(Cl)c2)cc1`, the Potency was inconclusive: 0.82 µM [activator, full curve].
For `Cc1ccc(CNC(=O)C2CCCN(S(=O)(=O)c3ccc(F)cc3)C2)cc1` (stereo unspecified), the Potency was inconclusive: 20.6 µM [activator, single point].
For `Cc1ccc(-n2nc3c(=O)n(CCCC(=O)NCCc4ccccc4C)nc(C)c3c2C)cc1`, the lipid storage change, negative = inhibition was inconclusive: -53.7%.
For `CC(C)C(=O)N1CCN(c2ccc(NC(=O)c3ccc4c(c3)OCCO4)cc2)CC1`, the Potency was inconclusive: 0.13 µM [falling, full curve, poor fit].
In the case of `Nc1ncnc(Nc2ccccc2C(F)(F)F)n1`, the lipid storage change, negative = inhibition is reported as inconclusive: -8.32%.
For `CCOC(=O)N1CCN(C(=S)NC(=O)c2ccc(F)c(F)c2)CC1`, the Potency was inconclusive: 0.651 µM [falling, single point].
For `COc1ccc(C2CC(c3cccs3)=NN2C(=O)COC(=O)C2CCCCC2)cc1OC` (stereo unspecified), the “outcome” value was “inactive [at 46.1 µM]”.
In the case of `CN(Cc1ccccc1)C(=O)c1nc[nH]c1C(=O)N1CCN(C(=O)OC(C)(C)C)CC1`, the Potency is reported as inconclusive: 0.0046 µM [activator, full curve, poor fit].
In the case of `O=C(NCCCN1CCOCC1)c1cc2nc(-c3ccco3)cc(C(F)(F)F)n2n1`, the lipid storage change, negative = inhibition is reported as inconclusive: 116%.
In the case of `Cc1ccc(N(C(=O)Cn2nnc(-c3cccs3)n2)C(C(=O)NC2CCCC2)c2ccncc2)cc1` (stereo unspecified), the Potency is reported as inconclusive: 0.058 µM [activator, full curve, poor fit].
With `CCCNC(=O)C1CNc2ccccc2O1` (stereo unspecified) the lipid storage change, negative = inhibition was inconclusive: 0.689%.
With `O=C(Nc1cccc(C(=O)Nc2ccccc2F)c1)c1ccccc1` the lipid storage change, negative = inhibition was inconclusive: -7.47%.
In the case of `CCCCOc1ccc(/C=C/C(=O)NCCc2nc3ccccc3[nH]2)cc1`, the lipid storage change, negative = inhibition is reported as inconclusive: -22.7%.
With `CCCN(C(=O)c1cccs1)c1nnc(-c2ccncc2)s1` the lipid storage change, negative = inhibition was inconclusive: 22.1%.
For `CC(=O)Nc1ccc(S(=O)(=O)N2CCSC2c2ccco2)cc1` (stereo unspecified), the Potency was inconclusive: 20.6 µM [falling, partial curve].
